Values from PubChem BioAssay AID1159584 (Peter MacCallum Cancer Centre, 2016)
The deposit covers about 18,000 reagents; this is an unselected part. Not given: the amount of reagent, the time to read-out.

Purpose: 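Genes that CDH1-null MCF10A cells selectively depend on to survive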 (primary screen)
Cells: human MCF10A breast epithelial cells, parental and CDH1-null
Knock-down reagent: siRNA against human genes
Measured: 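Cell viability by CellTiter-Glo ATP luminescence, each line scaled to the mean of mock wells across plates, then CDH1-null over parental ratio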
Direction: CDH1-null / parental viability ratio: higher = CDH1-null cells survive relatively better than parental; CDH1-null viability vs mock: higher = more viable CDH1-null cells; parental viability vs mock: higher = more viable parental cells

| target | CDH1-null / parental viability ratio | CDH1-null viability vs mock (fraction of mock) | parental viability vs mock (fraction of mock) |
| --- | --- | --- | --- |
| PAQR7 | 1 | 0.86 | 0.86 |
| FLNC | 0.9 | 0.85 | 0.94 |
| AKAP3 | 1.04 | 0.84 | 0.81 |
| CDH12 | 1 | 0.64 | 0.64 |
| ZNF830 | 0.86 | 0.81 | 0.94 |
| NRK | 0.9 | 0.88 | 0.98 |
| IRAK3 | 0.97 | 0.85 | 0.88 |
| MSRB3 | 1 | 0.88 | 0.88 |
| ZNF784 | 1 | 0.66 | 0.66 |
| LRRC8E | 0.84 | 0.69 | 0.82 |
| FLI1 | 1 | 0.86 | 0.86 |
| OLIG2 | 0.92 | 0.74 | 0.8 |
| DMRT1 | 1.22 | 0.89 | 0.73 |
| TCP11L2 | 0.82 | 0.67 | 0.82 |
| HESX1 | 1.12 | 0.9 | 0.8 |
| ITIH4 | 0.89 | 0.54 | 0.61 |
| TMEM101 | 0.86 | 0.74 | 0.86 |
| BICC1 | 0.95 | 0.57 | 0.6 |
| PCDHGB7 | 0.89 | 0.82 | 0.92 |
| TNNC1 | 0.7 | 0.42 | 0.6 |
| CCDC186 | 1.04 | 1.11 | 1.07 |
| WNK2 | 0.89 | 0.84 | 0.94 |
| SLC22A23 | 1.12 | 1.17 | 1.04 |
| TGDS | 0.6 | 0.46 | 0.77 |
| SATB1 | 0.99 | 1.06 | 1.07 |
| TRAPPC8 | 0.84 | 0.74 | 0.88 |
| ALOX15B | 0.93 | 0.78 | 0.84 |
| IFNA14 | 0.84 | 0.76 | 0.9 |
| KRABD4 | 0.81 | 0.76 | 0.94 |
| MRPL16 | 0.94 | 0.9 | 0.96 |
| HECA | 1.13 | 0.86 | 0.76 |
| CRTC3 | 0.71 | 0.61 | 0.86 |
| NCKAP5L | 1.6 | 0.85 | 0.53 |
| HAAO | 0.73 | 0.48 | 0.66 |
| HCFC1 | 1.07 | 0.64 | 0.6 |
| PSMD1 | 1.21 | 0.34 | 0.28 |
| TRPV6 | 1.31 | 0.92 | 0.7 |
| RBM23 | 1.24 | 0.94 | 0.76 |
| DDX39B | 0.68 | 0.62 | 0.91 |
| SDC4 | 0.96 | 0.88 | 0.92 |
| SEM1 | 0.99 | 0.82 | 0.83 |
| HDGFL1 | 0.95 | 0.9 | 0.95 |
| L2HGDH | 0.91 | 0.86 | 0.94 |
| EXOSC1 | 1.11 | 0.51 | 0.46 |
| P2RX2 | 0.95 | 0.57 | 0.6 |
| GPAT3 | 1.05 | 0.84 | 0.8 |
| LRRC4C | 0.91 | 0.78 | 0.86 |
| PNMA1 | 1.09 | 0.96 | 0.88 |
| UBE2C | 1.02 | 0.88 | 0.86 |
| ZSWIM8 | 1.14 | 0.82 | 0.72 |
| KPNA6 | 0.98 | 0.88 | 0.9 |
| TAF6L | 0.99 | 0.87 | 0.88 |
| IFNA13 | 1.39 | 1.25 | 0.9 |
| WDR26 | 1.1 | 0.92 | 0.84 |
| CD70 | 0.99 | 0.66 | 0.67 |
| PPARD | 0.98 | 0.97 | 0.99 |
| NUDT13 | 0.85 | 0.6 | 0.71 |
| ATXN1 | 0.89 | 0.62 | 0.7 |
| SAFB | 1.68 | 0.64 | 0.38 |
| ELP2 | 0.81 | 0.78 | 0.96 |
| SPRR1A | 0.83 | 0.48 | 0.58 |
| ANTXR1 | 0.82 | 0.95 | 1.16 |
| TAF4B | 0.98 | 0.62 | 0.63 |
| AVL9 | 1.16 | 0.5 | 0.43 |
| IL13 | 0.81 | 0.34 | 0.42 |
| TULP3 | 0.86 | 0.6 | 0.7 |
| BRINP2 | 1.27 | 0.76 | 0.6 |
| SHC4 | 0.93 | 0.95 | 1.02 |
| SH3BP4 | 1.39 | 1.06 | 0.76 |
| ATP13A3 | 0.96 | 0.86 | 0.9 |
| HEATR4 | 0.84 | 0.72 | 0.86 |
| FAM43A | 1.1 | 1.1 | 1 |
| ZER1 | 0.91 | 0.78 | 0.86 |
| TEX9 | 1.17 | 0.96 | 0.82 |
| RTL8C | 0.93 | 0.56 | 0.6 |
| ABCC4 | 1.27 | 0.81 | 0.64 |
| CCDC85B | 1.07 | 0.92 | 0.86 |
| SIK2 | 0.89 | 0.49 | 0.55 |
| XIAP | 0.94 | 0.45 | 0.48 |
| RBMX2 | 0.81 | 0.42 | 0.52 |
| DYNLT1 | 1.17 | 0.82 | 0.7 |
| MS4A2 | 1.35 | 0.62 | 0.46 |
| GATA2 | 0.88 | 0.44 | 0.5 |
| OR1J4 | 0.67 | 0.68 | 1.01 |
| CD93 | 1.02 | 0.94 | 0.92 |
| KATNAL2 | 1.17 | 0.98 | 0.84 |
| ECPAS | 1.04 | 1.06 | 1.02 |

10 entries already listed, arranged by “CDH1-null / parental viability ratio”, descending.
| target | CDH1-null / parental viability ratio | CDH1-null viability vs mock (fraction of mock) | parental viability vs mock (fraction of mock) |
| --- | --- | --- | --- |
| TRPV6 | 1.31 | 0.92 | 0.7 |
| RBM23 | 1.24 | 0.94 | 0.76 |
| PSMD1 | 1.21 | 0.34 | 0.28 |
| HCFC1 | 1.07 | 0.64 | 0.6 |
| SEM1 | 0.99 | 0.82 | 0.83 |
| SDC4 | 0.96 | 0.88 | 0.92 |
| HDGFL1 | 0.95 | 0.9 | 0.95 |
| L2HGDH | 0.91 | 0.86 | 0.94 |
| HAAO | 0.73 | 0.48 | 0.66 |
| DDX39B | 0.68 | 0.62 | 0.91 |
